# Some of the results follow.
# Legend:
# Test in all cases: glycan array binding signal (z-score within array); higher = stronger binding
# Conditions in all cases: glycan notation: IUPAC condensed, linker removed; mutation: D224N
# [1] = biological target: Neu5Gc(a2-8)Neu5Gc(a2-3)Gal(b1-4)GlcNAc(b1-3)Gal(b1-4)GlcNAc
# Procedure, shortened: (§1)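 Negative Z-scores can be read as non-binding. The Z-score is calculated within each array and then averaged across arrays of one protein sequence at different concentrations or buffers and across linkers. Arrays, 3228 in all, were curated from the Consortium for Functional Glycomics database and kept only where the protein sequence was available.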
# [2] = biological target: Neu5Gc(a2-8)Neu5Gc(a2-6)Gal(b1-4)GlcNAc
# Procedure, shortened: as §1
# [3] = biological target: Neu5Gc(b2-6)Gal(b1-4)GlcNAc
# Procedure, shortened: as §1
binder,measurement,setting,value
a L Fucosidase (Thermotoga maritima) (protein) MASMKPRYKPDWESLREHTVPKWFDKAKFGIFIHWGIYSVPGWATPTGELGKVPMDAWFFQNPYAEWYENSLRIKESPTWEYHVKTYGENFEYEKFADLFTAEKWDPQEWADLFKKAGAKYVIPTTKHHDGFCLWGTKYTDFNSVKRGPKRDLVGDLAKAVREAGLRFGVYYSGGLDWRFTTEPIRYPEDLSYIRPNTYEYADYAYKQVMELVDLYLPDVLWNNMGWPEKGKEDLKYLFAYYYNKHPEGSVNDRWGVPHWDFKTAEYHVNYPGDLPGYKWEFTRGIGLSFGYNRNEGPEHMLSVEQLVYTLVDVVSKGGNLLLNVGPKGDGTIPDLQKERLLGLGEWLRKYGDAIYGTSVWERCCAKTEDGTEIRFTRKCNRIFVIFLGIPTGEKIVIEDLNLSAGTVRHFLTGERLSFKNVGKNLEITVPKKLLETDSITLVLEAVEE,glycan array binding signal (z-score),[1],-0.813
same,glycan array binding signal (z-score),[2],-0.821
same,glycan array binding signal (z-score),[3],-0.305

# Reference: the supplement of paper PMC8728848
